Experimental data: patent publication US20250360155A1, “METHOD OF TREATING SPINAL CORD INJURY AND COMPOSITION FOR USE THEREIN” (ACADEMIA SINICA, priority 2022, published 2025)
For at least one compound, name, drawing or mass did not settle the structure.

System: C57BL/6J mice with SCI
Experiment: Behavioral tests (Basso Mouse Scale, footprint analysis) after spinal cord contusion
Format: in vivo
Details: methylprednisolone 30 mg/kg 10 min after crush, then at 2, 4 and 6 h after crush; vs vehicle
Method: Mice were anesthetized by intramuscular injection of Zoletil® (50 mg/kg; tiletamine hydrochloride and zolazepam hydrochloride) and Rompun® (12 mg/kg; xylazine hydrochloride) before the surgery. After laminectomy on the T9-T10 vertebral column, the spinal cord was exposed and contused by a 10 g rod with an impact head of 1.2 mm diameter at the height of 6.25 mm above the T10 spinal cord to allow it to drop using an Impactor model-II spinal cord contusion system (RWD6809911) to cause the contusion injury. In the sham group, surgery procedures were identical except for the spinal contusion. After the injury, the wound was quickly sutured using 4.0 silk thread (Unik Taiwan; New Taipei city, Taiwan). The bladders of mice were manually and gently massaged once a day to avoid retention of urine until the reflexive control of micturition was restored. Cefazolin (300 mg/kg) was given for consecutive three days after surgery to prevent infection. Fourteen days after the surgery, mice were sacrificed for analyses. […]
The motor function after SCI was evaluated from day 3 to day 14 after the surgery by locomotor open-field rating scale on the Basso Mouse Scale (BMS).^6 Scoring ranged from 0 for complete paraplegia to 9 for normal function. The footprint analysis was assessed on day 14 after the surgery. […]

`C[C@H]1C[C@@H]2[C@H]([C@@H](O)C[C@@]3(C)[C@H]2CC[C@]3(O)C(=O)CO)[C@@]2(C)C=CC(=O)C=C12` [MPSS, methylprednisolone, reference compound] was tested, and the motor function was “did not improve”.
